This passage reports binding results from publication PMC5656747.

Sequences of proteins named here, by UniProt entry; tags and fusion partners are left off. Residues count along the entry.
UniProt P25054, residues 1265-2060: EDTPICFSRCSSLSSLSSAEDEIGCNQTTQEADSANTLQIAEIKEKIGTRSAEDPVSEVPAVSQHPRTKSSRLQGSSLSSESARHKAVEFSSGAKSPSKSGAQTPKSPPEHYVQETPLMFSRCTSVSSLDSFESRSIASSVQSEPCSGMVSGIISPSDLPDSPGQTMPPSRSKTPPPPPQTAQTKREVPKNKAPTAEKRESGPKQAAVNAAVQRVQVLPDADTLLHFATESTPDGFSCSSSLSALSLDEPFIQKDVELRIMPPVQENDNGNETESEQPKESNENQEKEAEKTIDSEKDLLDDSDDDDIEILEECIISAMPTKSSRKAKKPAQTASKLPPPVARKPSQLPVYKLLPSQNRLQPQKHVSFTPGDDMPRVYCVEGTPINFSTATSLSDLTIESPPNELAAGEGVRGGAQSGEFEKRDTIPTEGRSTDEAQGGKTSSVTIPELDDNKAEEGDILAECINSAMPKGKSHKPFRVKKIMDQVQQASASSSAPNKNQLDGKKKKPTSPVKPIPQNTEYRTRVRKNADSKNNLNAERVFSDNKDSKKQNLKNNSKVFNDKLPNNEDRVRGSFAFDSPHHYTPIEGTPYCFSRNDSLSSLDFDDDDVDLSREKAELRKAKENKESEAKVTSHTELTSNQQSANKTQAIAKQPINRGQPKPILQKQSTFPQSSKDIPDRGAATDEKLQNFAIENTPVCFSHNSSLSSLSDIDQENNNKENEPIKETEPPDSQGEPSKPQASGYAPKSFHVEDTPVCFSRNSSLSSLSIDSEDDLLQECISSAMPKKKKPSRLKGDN
UniProt Q93009: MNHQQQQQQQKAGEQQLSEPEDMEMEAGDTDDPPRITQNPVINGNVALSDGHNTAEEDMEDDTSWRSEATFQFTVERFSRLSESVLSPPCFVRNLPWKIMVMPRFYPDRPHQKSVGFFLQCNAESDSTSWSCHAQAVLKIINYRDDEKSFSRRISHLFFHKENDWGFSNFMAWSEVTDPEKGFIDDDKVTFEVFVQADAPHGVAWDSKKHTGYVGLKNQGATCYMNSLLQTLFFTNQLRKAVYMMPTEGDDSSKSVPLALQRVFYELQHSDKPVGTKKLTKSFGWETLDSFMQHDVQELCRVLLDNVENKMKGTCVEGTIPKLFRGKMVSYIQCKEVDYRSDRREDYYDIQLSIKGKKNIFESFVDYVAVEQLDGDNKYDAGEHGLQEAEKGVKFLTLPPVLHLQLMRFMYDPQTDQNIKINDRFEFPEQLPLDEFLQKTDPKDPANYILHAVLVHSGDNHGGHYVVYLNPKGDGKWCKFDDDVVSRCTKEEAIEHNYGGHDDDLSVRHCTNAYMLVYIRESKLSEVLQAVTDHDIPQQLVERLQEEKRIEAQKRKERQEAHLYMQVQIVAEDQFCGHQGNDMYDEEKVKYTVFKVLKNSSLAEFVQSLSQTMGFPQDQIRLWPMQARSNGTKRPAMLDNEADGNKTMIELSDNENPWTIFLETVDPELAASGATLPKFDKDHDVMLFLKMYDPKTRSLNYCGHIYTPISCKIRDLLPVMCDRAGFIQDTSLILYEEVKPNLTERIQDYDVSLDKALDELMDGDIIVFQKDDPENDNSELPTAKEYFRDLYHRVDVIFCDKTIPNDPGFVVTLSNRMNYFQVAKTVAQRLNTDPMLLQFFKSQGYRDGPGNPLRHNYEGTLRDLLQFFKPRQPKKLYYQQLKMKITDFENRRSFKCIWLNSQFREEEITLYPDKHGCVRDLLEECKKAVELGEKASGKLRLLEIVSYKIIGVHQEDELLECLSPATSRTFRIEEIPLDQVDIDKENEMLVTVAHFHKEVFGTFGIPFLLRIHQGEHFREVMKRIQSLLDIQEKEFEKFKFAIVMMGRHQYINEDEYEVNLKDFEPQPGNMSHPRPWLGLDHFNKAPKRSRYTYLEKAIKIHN
UniProt O15169: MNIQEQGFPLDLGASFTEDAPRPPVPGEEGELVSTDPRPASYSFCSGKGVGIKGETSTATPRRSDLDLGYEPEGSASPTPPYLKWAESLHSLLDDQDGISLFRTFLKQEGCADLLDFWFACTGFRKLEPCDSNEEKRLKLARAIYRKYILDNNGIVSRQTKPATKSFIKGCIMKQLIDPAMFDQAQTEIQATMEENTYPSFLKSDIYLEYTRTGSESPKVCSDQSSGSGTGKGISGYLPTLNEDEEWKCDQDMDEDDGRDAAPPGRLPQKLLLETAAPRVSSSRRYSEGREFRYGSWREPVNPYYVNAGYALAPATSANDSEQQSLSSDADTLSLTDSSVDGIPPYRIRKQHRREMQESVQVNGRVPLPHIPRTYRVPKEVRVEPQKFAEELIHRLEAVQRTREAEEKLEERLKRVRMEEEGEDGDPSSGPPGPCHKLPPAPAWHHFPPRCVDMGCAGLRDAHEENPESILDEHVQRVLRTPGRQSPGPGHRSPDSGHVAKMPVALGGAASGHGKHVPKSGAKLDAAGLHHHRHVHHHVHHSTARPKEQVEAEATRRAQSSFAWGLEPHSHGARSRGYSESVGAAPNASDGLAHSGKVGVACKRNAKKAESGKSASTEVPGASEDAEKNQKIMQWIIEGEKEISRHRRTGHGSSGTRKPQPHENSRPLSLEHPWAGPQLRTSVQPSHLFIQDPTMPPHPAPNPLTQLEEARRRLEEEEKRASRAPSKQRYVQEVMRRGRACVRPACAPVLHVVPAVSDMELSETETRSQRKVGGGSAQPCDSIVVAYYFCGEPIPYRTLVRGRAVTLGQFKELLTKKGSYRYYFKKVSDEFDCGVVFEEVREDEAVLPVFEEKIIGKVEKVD

In this test the target is APC WT (central region of APC, 1,265-2,060 aas), FLAG-tagged (UniProt P25054). Briefly: affinity purification with mass spectrometry; APC WT or ΔCID expressed in human HEK293T cells; tandem affinity purification, mass spectrometry, iBAQ label-free quantification.

Results are given in words; binding and its absence hold for the method and conditions named. In cells and extracts the contact can be indirect. These calls come from enrichment with a bait or labelling near it, and not all partners need be listed. A no says only that the protein was not detected with the bait.

In the case of “USP7 (ubiquitin-specific peptidase 7) (from UniProt Q93009 1-1102) (enzyme)”, the binding result was “no binding”.
AXIN1 (from UniProt O15169 1-862): the binding result is reported as “binds”.
